# According to article PMC12407099:
# Protein sequences, listed by entry. Tags and fused reporters are not part of them.
# UniProt Q12888: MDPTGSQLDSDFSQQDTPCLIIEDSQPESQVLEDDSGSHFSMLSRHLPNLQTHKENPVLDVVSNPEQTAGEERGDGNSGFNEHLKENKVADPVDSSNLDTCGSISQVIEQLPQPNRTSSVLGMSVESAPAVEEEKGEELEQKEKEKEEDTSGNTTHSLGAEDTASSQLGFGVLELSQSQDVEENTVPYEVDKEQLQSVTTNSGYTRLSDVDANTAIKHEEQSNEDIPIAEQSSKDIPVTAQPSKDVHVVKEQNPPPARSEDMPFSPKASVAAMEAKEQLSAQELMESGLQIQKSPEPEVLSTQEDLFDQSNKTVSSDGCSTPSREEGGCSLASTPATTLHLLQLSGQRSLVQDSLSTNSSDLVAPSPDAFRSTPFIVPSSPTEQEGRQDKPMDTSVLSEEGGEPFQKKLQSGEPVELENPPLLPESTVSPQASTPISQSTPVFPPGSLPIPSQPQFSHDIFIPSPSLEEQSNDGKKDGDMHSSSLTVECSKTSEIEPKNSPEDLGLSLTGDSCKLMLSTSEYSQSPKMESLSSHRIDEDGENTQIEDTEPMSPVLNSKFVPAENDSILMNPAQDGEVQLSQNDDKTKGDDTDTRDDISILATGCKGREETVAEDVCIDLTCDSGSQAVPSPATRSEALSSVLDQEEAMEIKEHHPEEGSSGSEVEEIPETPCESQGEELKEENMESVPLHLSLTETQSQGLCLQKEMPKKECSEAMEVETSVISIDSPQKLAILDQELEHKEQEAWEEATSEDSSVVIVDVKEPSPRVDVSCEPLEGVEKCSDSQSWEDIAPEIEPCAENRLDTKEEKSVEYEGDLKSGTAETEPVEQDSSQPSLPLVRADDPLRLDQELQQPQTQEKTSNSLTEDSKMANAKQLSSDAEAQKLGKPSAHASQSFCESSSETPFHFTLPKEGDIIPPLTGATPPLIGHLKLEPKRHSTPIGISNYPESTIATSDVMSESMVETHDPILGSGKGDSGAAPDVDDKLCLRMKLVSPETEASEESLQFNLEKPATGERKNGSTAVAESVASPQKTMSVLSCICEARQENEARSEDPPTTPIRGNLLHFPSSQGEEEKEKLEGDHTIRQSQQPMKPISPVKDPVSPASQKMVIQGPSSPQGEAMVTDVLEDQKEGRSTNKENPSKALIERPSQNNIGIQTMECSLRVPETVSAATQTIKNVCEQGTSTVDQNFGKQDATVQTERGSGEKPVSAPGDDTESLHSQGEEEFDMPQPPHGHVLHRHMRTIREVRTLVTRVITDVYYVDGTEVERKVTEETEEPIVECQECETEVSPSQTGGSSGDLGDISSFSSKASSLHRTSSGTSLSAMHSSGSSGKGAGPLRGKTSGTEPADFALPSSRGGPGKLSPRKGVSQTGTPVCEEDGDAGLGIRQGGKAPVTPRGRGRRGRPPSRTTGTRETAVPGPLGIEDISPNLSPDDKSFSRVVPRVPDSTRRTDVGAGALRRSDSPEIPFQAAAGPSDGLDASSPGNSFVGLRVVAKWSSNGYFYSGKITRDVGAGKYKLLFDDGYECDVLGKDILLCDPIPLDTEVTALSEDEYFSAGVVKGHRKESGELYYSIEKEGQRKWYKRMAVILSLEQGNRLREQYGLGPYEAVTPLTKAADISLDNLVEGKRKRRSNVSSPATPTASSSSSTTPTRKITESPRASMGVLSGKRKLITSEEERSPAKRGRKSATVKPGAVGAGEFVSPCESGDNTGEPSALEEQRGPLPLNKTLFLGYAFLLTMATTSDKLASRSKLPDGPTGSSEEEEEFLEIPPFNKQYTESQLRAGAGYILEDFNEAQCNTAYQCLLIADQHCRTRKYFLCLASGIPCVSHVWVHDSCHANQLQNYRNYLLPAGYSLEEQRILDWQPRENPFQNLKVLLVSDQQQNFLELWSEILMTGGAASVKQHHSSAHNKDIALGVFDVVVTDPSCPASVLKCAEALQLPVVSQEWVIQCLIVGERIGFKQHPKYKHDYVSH
# Like-named read-outs stand apart in the source and are kept apart here. These are yes or no findings as the source states them, for the method shown. In cells and extracts the contact can be indirect. These calls come from enrichment with a bait or labelling near it, and not all partners need be listed. Tags and fused reporters may be left off the sequences shown.
# T1: WT hnRNPL (heterogeneous ribonucleoprotein L), siRNA-resistant, C-terminal 3× Flag (UniProt Q8R081)
# T1 sequence: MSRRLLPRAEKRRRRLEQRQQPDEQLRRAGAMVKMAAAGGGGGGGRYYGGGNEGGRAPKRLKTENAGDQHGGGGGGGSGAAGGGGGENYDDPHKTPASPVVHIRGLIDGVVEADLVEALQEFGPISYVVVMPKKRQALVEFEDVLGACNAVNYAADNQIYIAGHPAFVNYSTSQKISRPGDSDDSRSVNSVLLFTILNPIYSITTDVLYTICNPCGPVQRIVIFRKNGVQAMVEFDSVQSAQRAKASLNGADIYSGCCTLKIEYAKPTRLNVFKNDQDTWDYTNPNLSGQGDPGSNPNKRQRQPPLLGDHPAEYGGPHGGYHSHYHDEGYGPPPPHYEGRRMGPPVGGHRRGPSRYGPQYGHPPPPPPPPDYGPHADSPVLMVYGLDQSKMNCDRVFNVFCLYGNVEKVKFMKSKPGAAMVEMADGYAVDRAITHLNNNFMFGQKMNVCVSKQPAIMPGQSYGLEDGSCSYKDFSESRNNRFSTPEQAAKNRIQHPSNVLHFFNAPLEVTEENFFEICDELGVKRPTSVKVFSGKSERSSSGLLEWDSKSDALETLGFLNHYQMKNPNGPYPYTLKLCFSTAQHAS
# Experiments:
# [1] = molecular target: T1, WT hnRNPL (heterogeneous ribonucleoprotein L), siRNA-resistant, C-terminal 3× Flag; test: affinity purification with mass spectrometry; Flag-tagged WT and F15 hnRNPL immunoprecipitated from HEK293T lysates with anti-Flag affinity resin; SDS-PAGE, silver staining; gel regions that differed between WT and mutant excised for mass spectrometry
# [2] = molecular target: T1, WT hnRNPL (heterogeneous ribonucleoprotein L), siRNA-resistant, C-terminal 3× Flag; test: as above; remark: listed apart in the source
binding [1],binding [2],Molecule
binds,–,53BP1 (from UniProt Q12888 1-1972)
–,binds,"CstF64 (polyadenylation/cleavage stimulating factor), endogenous in HEK293T (protein, UniProt P33240 1-577) MAGLTVRDPAVDRSLRSVFVGNIPYEATEEQLKDIFSEVGPVVSFRLVYDRETGKPKGYGFCEYQDQETALSAMRNLNGREFSGRALRVDNAASEKNKEELKSLGTGAPVIESPYGETISPEDAPESISKAVASLPPEQMFELMKQMKLCVQNSPQEARNMLLQNPQLAYALLQAQVVMRIVDPEIALKILHRQTNIPTLIAGNPQPVHGAGPGSGSNVSMNQQNPQAPQAQSLGGMHVNGAPPLMQASMQGGVPAPGQMPAAVTGPGPGSLAPGGGMQAQVGMPGSGPVSMERGQVPMQDPRAAMQRGSLPANVPTPRGLLGDAPNDPRGGTLLSVTGEVEPRGYLGPPHQGPPMHHVPGHESRGPPPHELRGGPLPEPRPLMAEPRGPMLDQRGPPLDGRGGRDPRGIDARGMEARAMEARGLDARGLEARAMEARAMEARAMEARAMEARAMEVRGMEARGMDTRGPVPGPRGPIPSGMQGPSPINMGAVVPQGSRQVPVMQGTGMQGASIQGGSQPGGFSPGQNQVTPQDHEKAALIMQVLQLTADQIAMLPPEQRQSILILKEQIQKSTGAP"
